In paper doi:10.1101/2024.06.13.598799:
These are yes or no findings as the source states them, for the method shown. In cells and extracts the contact can be indirect. Where a sequence is shown, tags or fusion partners need not be part of it.

The chains behind the UniProt entries cited, without tags or fusion partners.
UniProt Q05609: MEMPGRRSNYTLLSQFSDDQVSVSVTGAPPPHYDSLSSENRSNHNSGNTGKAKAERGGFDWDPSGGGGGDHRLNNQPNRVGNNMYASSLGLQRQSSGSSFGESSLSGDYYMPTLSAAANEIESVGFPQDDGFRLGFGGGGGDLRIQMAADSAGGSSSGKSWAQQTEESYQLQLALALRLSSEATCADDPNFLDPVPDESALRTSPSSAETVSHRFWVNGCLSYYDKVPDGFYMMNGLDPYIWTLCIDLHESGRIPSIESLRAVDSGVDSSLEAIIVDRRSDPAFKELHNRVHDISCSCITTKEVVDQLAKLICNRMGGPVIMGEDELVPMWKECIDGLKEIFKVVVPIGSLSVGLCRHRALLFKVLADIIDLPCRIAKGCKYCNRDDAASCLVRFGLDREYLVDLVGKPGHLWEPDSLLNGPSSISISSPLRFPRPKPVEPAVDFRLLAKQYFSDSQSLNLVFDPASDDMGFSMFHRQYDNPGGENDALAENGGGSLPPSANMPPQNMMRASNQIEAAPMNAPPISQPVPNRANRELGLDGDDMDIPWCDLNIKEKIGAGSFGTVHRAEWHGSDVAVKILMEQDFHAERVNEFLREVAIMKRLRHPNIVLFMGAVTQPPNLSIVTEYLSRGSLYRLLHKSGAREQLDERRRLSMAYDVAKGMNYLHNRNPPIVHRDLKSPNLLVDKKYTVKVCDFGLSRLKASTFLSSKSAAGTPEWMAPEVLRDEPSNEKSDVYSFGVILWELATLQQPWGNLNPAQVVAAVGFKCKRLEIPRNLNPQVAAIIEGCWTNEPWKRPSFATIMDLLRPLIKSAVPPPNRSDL

Molecular target: T1, EIN2-eYFP (ETHYLENE …2 fused to eYFP), expressed from EIN2p:EIN2-eYFP in ein2^W308* transgenic plants (Arabidopsis) (UniProt Q9S814)
T1 sequence: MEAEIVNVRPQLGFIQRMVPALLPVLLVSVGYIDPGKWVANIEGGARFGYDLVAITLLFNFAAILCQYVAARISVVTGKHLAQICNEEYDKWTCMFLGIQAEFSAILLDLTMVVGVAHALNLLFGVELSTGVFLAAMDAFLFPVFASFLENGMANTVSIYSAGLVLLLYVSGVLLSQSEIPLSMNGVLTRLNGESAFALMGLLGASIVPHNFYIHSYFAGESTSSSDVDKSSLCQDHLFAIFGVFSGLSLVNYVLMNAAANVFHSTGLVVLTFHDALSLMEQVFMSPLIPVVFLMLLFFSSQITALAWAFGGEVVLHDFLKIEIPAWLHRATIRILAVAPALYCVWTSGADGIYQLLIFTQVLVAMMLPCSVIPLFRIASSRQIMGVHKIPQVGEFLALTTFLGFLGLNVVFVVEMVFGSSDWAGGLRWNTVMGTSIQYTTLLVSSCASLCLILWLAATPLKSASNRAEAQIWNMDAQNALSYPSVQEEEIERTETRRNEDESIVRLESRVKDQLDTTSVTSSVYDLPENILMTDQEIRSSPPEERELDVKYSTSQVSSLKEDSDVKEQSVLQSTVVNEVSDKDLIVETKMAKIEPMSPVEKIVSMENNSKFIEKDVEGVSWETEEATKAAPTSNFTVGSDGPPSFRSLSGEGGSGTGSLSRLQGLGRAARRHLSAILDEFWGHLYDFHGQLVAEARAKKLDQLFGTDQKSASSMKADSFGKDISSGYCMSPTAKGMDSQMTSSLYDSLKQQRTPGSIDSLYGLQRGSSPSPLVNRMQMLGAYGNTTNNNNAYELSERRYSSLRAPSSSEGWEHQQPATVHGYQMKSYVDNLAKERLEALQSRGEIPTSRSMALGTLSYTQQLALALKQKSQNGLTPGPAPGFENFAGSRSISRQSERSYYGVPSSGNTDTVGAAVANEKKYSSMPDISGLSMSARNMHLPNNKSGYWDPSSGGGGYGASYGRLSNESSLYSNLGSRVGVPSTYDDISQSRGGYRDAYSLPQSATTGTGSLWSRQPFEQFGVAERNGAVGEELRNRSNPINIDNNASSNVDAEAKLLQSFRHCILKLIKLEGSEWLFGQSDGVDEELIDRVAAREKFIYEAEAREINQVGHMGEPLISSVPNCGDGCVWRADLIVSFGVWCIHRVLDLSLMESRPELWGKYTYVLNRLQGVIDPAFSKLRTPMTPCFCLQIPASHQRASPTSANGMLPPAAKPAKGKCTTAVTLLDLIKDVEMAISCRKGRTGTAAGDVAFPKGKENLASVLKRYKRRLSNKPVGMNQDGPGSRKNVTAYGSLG
Experiment: co-IP

“CONSTITUTIVE TRIPLE-RESPONSE1 (CTR1) (from UniProt Q05609 1-821)” was tested, and the binding was “no binding”.
